Results as given in paper PMC7819943, “Rice protein-binding microarrays: a tool to detect cis-acting elements near promoter regions in rice”.
Some of the results follow.

Amino acid sequences for entries named in this document (tags omitted).
UniProt Q0JBA9, entry or part of it: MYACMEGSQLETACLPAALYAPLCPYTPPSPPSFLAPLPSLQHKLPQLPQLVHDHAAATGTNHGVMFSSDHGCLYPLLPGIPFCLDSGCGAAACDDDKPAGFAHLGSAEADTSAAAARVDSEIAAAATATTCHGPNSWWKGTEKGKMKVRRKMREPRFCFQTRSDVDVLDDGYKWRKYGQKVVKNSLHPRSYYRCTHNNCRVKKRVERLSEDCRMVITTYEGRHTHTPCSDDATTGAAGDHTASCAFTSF

Target: OsWRKY34 (Oryza sativa, UniProt Q0JBA9 1-250)
Experiment: protein-binding microarray (RPBM); PBS, 2% BSA, 51.3 ng/ul salmon testes DNA, 50 uM zinc acetate, 200 nM TF, 25 C, 1 h; high values mean tight binding
Details: protein: recombinant; tags: N-terminal polyhistidine and DsRed monomer fusion (pET32a); label: CyDye5-dUTP incorporated in the synthesized complementary strand; 3' TTTTT single-stranded linker to array surface; dsDNA, one strand shown
Summary of the method: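 The binding signal is fluorescence intensity per feature, in arbitrary units, read on an Axon 4000B scanner. Polyhistidine- and DsRed-tagged transcription factors (N-terminal fusions) from E. coli BL21-CodonPlus were purified on Ni–NTA and applied at 200 nM for 1 h at 25 °C to a double-stranded, BSA-blocked custom Agilent array in buffer with 50 µM zinc acetate.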

Sequence	binding signal
CCTCTTTTCTTTTTTCTTTTCAACCAAGGGTTTAACTTTCCGGAGTCACCTAGTGCAG	12500 fluorescence intensity (a.u.)
AAATAAACGGTCAAATATATTTAAAAAAAAGTCAACGATGCGGAGTCACCTAGTGCAG	12000 fluorescence intensity (a.u.)
TTACCTAGGCTGAGTTTTTTTTCCCAACTTTCCTAACTCACGGAGTCACCTAGTGCAG	8980 fluorescence intensity (a.u.)
GTAGTACGTGTGTAATTACAAGATGCCCAGTAAAATTATTCGGAGTCACCTAGTGCAG	8060 fluorescence intensity (a.u.)
GTGACCCGCCCCGCCCATAACGGCACACTCTCCGTACTCTCGGAGTCACCTAGTGCAG	9780 fluorescence intensity (a.u.)
GTTGTCGGTGTGTGGGTGGTGATATATTTTTTTAACTGGTCGGAGTCACCTAGTGCAG	9020 fluorescence intensity (a.u.)
GGTGTGTGCTGGCTATTTGTCAAAGATTATGTGGGTTTTTCGGAGTCACCTAGTGCAG	10400 fluorescence intensity (a.u.)
TCCTCGCCGCCGCCAACAAAGTCTGTACCGTCCCCGCGCCCGGAGTCACCTAGTGCAG	9460 fluorescence intensity (a.u.)
ATGTTTCTTGCGCGTGGGATCGAGCCAATCAAGTTGTTTTCGGAGTCACCTAGTGCAG	9280 fluorescence intensity (a.u.)
TTGGGTATAGGTTTTTTAGAAGTCATTTGCTTTTTTTATTCGGAGTCACCTAGTGCAG	10300 fluorescence intensity (a.u.)
TACTACGTCACATTTTAGTCATGCTACATTTTCTCAGGCACGGAGTCACCTAGTGCAG	8910 fluorescence intensity (a.u.)
AAATTTTTGGGATCTAAACACACCCTAAATCAAATCCATGCGGAGTCACCTAGTGCAG	8180 fluorescence intensity (a.u.)
CAATCCACATCTTGATTTGTGCTGCGTGTTTCCCGTCTGTCGGAGTCACCTAGTGCAG	10200 fluorescence intensity (a.u.)
CGGAGAGGGAGAAGGAGAGGAGAGGGGCTGATAGGTGGGGCGGAGTCACCTAGTGCAG	9920 fluorescence intensity (a.u.)
TGCCTAATGTGTTGTCGCACGTATTCCTTGTTGCATGCCTCGGAGTCACCTAGTGCAG	9600 fluorescence intensity (a.u.)
TCCCTTCATTTTTTTTCTTTGACGTTGGTTAGCTCAAAAACGGAGTCACCTAGTGCAG	9120 fluorescence intensity (a.u.)
ACCCATCTCTCTTCTCGAGCATGAACAATCTCGATTACATCGGAGTCACCTAGTGCAG	8520 fluorescence intensity (a.u.)
GCAGCTCCTTTTTTTCTCCTATGGACTCACGACTCAGTCACGGAGTCACCTAGTGCAG	8260 fluorescence intensity (a.u.)
GGTTTGGGACCTGCTGTTGCGCACCTATATCAACACCAACCGGAGTCACCTAGTGCAG	13200 fluorescence intensity (a.u.)
CGGACTTCGTTTTTGTTTATTTACTGAGGAGACCTTTTTTCGGAGTCACCTAGTGCAG	9170 fluorescence intensity (a.u.)
CCACTAGAACTGTCATTCGAGTGGTATCCTTGCAATATTCCGGAGTCACCTAGTGCAG	8640 fluorescence intensity (a.u.)

Sequence	binding signal
CCAGTCTATTTTGTGTTGGCTTTCCTGTTCGGTGTTGATGCGGAGTCACCTAGTGCAG	8310 fluorescence intensity (a.u.)
CACTACACTACTCTGGTCCACGCGCCGCGAGAACTACTCGCGGAGTCACCTAGTGCAG	8900 fluorescence intensity (a.u.)
ATCTTTAACAGGGAGCCGATGAAGAAATTTCAACGTTGTCCGGAGTCACCTAGTGCAG	8050 fluorescence intensity (a.u.)
TCACACCCTTCCATTTTTTTCCCCTGTGCCACCCCAATTCCGGAGTCACCTAGTGCAG	9490 fluorescence intensity (a.u.)
GCTTGATATACTATTTTCATGATGTGGTTCTTTTAAATTCCGGAGTCACCTAGTGCAG	11200 fluorescence intensity (a.u.)
CGCCATATTTCTTTTTTTTCTCTATATTCCTTTTCTATCTCGGAGTCACCTAGTGCAG	12300 fluorescence intensity (a.u.)
GCTTTCTCATTTACCTATATAAATCCTGACATGATTTCAGCGGAGTCACCTAGTGCAG	9400 fluorescence intensity (a.u.)
TACTCAACATGCTGCTCACGCCACAGCTCTAACCTGAAGCCGGAGTCACCTAGTGCAG	8200 fluorescence intensity (a.u.)
CGGCAGTTTGGATGATTTTTTTTGTTCCCAGTTGTTTAACCGGAGTCACCTAGTGCAG	8130 fluorescence intensity (a.u.)
ATGCTGAATTGGGTTGGGCTGGGGAGGAATTATAGACTATCGGAGTCACCTAGTGCAG	17500 fluorescence intensity (a.u.)
GCGCGCCCAAACGTCCAATCACCCACGGCCGCGCGGGCCCCGGAGTCACCTAGTGCAG	8300 fluorescence intensity (a.u.)
TCTCGGTGACGGCGGCCTCGTCCCACTCCCGCCCGGGGATCGGAGTCACCTAGTGCAG	8470 fluorescence intensity (a.u.)
GCCGCCGATCTACCTCCGCCGCCGCGCCCTCCCCTCGCCGCGGAGTCACCTAGTGCAG	10200 fluorescence intensity (a.u.)
TTTTCCTGTGGTTCAATCATACGGTCATTCCTGTGTTTTTCGGAGTCACCTAGTGCAG	11400 fluorescence intensity (a.u.)
TAATCTTTAAACGTTGGTCTGGTTGAGTCCTTAATTCACCCGGAGTCACCTAGTGCAG	8510 fluorescence intensity (a.u.)
TACATCCTCCGTTTCACAATGTAAGTCATTCTAGCATTTTCGGAGTCACCTAGTGCAG	10500 fluorescence intensity (a.u.)
TGCTCTGCCTTTTGCTCCTATAGCTTTTCTGAAAACATTGCGGAGTCACCTAGTGCAG	8130 fluorescence intensity (a.u.)
CGTTTGCTTAGTTACGTATCACTGCTATCTTTGTCCCATACGGAGTCACCTAGTGCAG	8170 fluorescence intensity (a.u.)
CTTATTTGTAGCTTCCTTTTTTTTTCCTTTTTCTTTTATTCGGAGTCACCTAGTGCAG	10400 fluorescence intensity (a.u.)
ACATCCACAACCATCTCCACCTCACCTCGTCCATCGTCTCCGGAGTCACCTAGTGCAG	8700 fluorescence intensity (a.u.)
TTTTTGTTTTCTCAATTCGCGAATTTAATGCTTTTGTGTACGGAGTCACCTAGTGCAG	9750 fluorescence intensity (a.u.)

A different layout for part of the listing above:
TACTACGTCACATTTTAGTCATGCTACATTTTCTCAGGCACGGAGTCACCTAGTGCAG
  binding signal = 8910 fluorescence intensity (a.u.)
ACCCATCTCTCTTCTCGAGCATGAACAATCTCGATTACATCGGAGTCACCTAGTGCAG
  binding signal = 8520 fluorescence intensity (a.u.)
GCAGCTCCTTTTTTTCTCCTATGGACTCACGACTCAGTCACGGAGTCACCTAGTGCAG
  binding signal = 8260 fluorescence intensity (a.u.)
